This assay concerns the target VapB26 antitoxin (Rv0581) (Mycobacterium tuberculosis) (UniProt O53778). As to the kind of experiment: co-purification of the complex.

Protein sequences, listed by entry. Tags and fused reporters are not part of them.
UniProt O53778: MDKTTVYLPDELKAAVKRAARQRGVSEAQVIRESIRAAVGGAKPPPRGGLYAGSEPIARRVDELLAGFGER

No constants are given. Whether binding was seen depends on the method and setting. Some entries that bind do so weakly or less than the wild type.

B1: VapC26 toxin (Rv0582) (enzyme, UniProt O53779 1-135)
chain: MIIDTSALLAYFDAAEPDHAAVSECIDSSADALVVSPYVVAELDYLVATRVGVDAELAVLRELAGGAWELANCGAAEIEQAARIVTKYQDQRIGIADAANVVLADRYRTRTILTLDRRHFSALRPIGGGRFTVIP
As to B1, the binding entry is recorded as “binds”.
